± gives the standard deviation. The entries are a selection whose mix differs from that of the whole data set. The uncertainty is large for many entries.

This assay concerns MILI (PIWIL2) piRISC loaded with Kctd7 piRNA (26 nt). The assay is described as follows: pre-steady-state target cleavage rate (min^-1); MIWI and MILI are mouse PIWI proteins and EfPiwi is from a freshwater sponge; tags in brackets are library labels; higher = faster piRNA-guided slicing of the target. The settings on record: guide: Kctd7 piRNA 5'p-UGUUAAUCUCUCAGAGAAGGUGACAG; auxiliary factor: 500 nM mouse GTSF1. The procedure, abridged: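 Sequencing of uncleaved targets, normalised to depth and to weakly complementary targets, was the readout of this Cleave-'n-Seq assay. A transcribed, DNA-blocked target RNA library (0.1 nM) was mixed with 1 nM active affinity-purified piRISC carrying one synthetic guide, with or without 500 nM GTSF1 partner protein, in HEPES–potassium acetate buffer at 33 °C for 0–8 or 0–960 min. Three trials were pooled, k3 was capped at 0.0001 min^-1, and a burst-and-steady-state fit gave the pre-steady-state cleavage rate.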
In the case of UAGUGACAGUGGAAGAGUCAGAGAUUAUCA, the “pre-steady-state target cleavage rate” value was found to be 0.000267 ± 0.025.
The value for UAGUGACAGACCUUCUCUGAAGAUUAACA was 0.000839 ± 0.0096; that for UAGUGACUCAUCCUUCUCUGAGAGAUUAACA was 0.0582 ± 0.0061.
As to UAGUGAGUCACCUUCUUUGAGAGAUUAACA, the “pre-steady-state target cleavage rate” value stood at 0.334 ± 0.029.
The value for UAGUGACAGUGGUUCUCUGAGAAGAUUAACA was 0.00181 ± 0.0048; that for UAGUGACAGUGGAAGACUGGGAGAUUAACA was 0.000275 ± 0.0092; that for UAGUGACAGUGGAAGUCUGGGAGAUUAACA was 0.000817 ± 0.0031.
With UAGUGACAGUGCUUCUCUGAGAGAAUAUCA the figure was 0.00023 ± 0.011; with UAGUGACAGUGGUUCUCUGAGAGAUUUAACA, 0.000253 ± 0.01; with UAGUGACAGUGGAUUCUGAGAGAUUAACA, 0.00128 ± 0.0041.
For the sequence UAGUGACAGUGGAACUCUGAGAGAUUUAACA, the “pre-steady-state target cleavage rate” value amounted to 0.000233 ± 0.023.
With UAGUGACAGUGGAACUCUGAGAGCAUUAACA the figure was 0.000388 ± 0.014; with UAGUGAGUCACCUUCUCUGAGAUAUUAACA, 0.115 ± 0.017; with UAGUGACAGUGGAUGUCUGUGAGAUUAACA, 0.000192 ± 0.013.
The value for UAGUGACAGUGCUUCUCUCAGUGAUUAACA was 0.00178 ± 0.0033; that for UAGUGACACACGUUCUCUGAGUGAUUAACA was 0.00155 ± 0.0053.
The value for UAGUGACUCACCUUGACUGAGAGAUUAUGA was 0.000524 ± 0.022; that for UAGUGACAGUCCUUCACUGAGAGUUUAACA was 0.00149 ± 0.0064.
As to UAGUGAGUCAGGUUCUCUGAGAGAUUUUGA, the “pre-steady-state target cleavage rate” value came out at 0.00194 ± 0.0052.
Regarding UAGUCUGUCACCUUCUUCUGAGAGAUUAACA, the “pre-steady-state target cleavage rate” value came out at 0.0864 ± 0.021.
The value for UAGUGACACACCUUCAGAGAGAGAUUAACA was 0.00385 ± 0.0052; that for UAGUGACAGUGGAUCACUGAGUGAUUAACA was 0.000454 ± 0.0097.
The value for UAGUGAGUCUGCUUCUCUGAGAGAUUUUGA was 0.00063 ± 0.0077; that for UAGUGACUCACCUUCUCUGAGAAUUAACA was 0.0014 ± 0.0077.
With UAGUGACAGUGCUUCUCAGAGUGAUUAACA the figure was 0.00286 ± 0.0029.
On to UAGUGACAGUGGUUGUCUGAGAGAUAAACA, for which the “pre-steady-state target cleavage rate” value amounted to 0.000152 ± 0.037.
The value for UAGUCUGUCAGCUUCUCUGACAGAUUAACA was 0.00105 ± 0.01; that for UAGUGACAGUGGUUCUCUGAGAGUAUUAACA was 0.000508 ± 0.0056; that for UAGUGACAGUGGAUGUCUGAGUGAUUAACA was 0.000183 ± 0.013.
The value for UAGUGACUCACCUUCUCUGAGACUAUAACA was 0.00164 ± 0.0074.
With UAGUGACUCACCUUCUCUGAGAGAUGUAACA, the “pre-steady-state target cleavage rate” value came out at 0.172 ± 0.028.
With UAGUGACAGUCCUUCUCUGAGAGAAUAACA the figure was 0.00233 ± 0.0043; with UAGUGACAGUGCUAGACUGAGAGAUUAACA, 0.000382 ± 0.015; with UAGUGACAGACCUUCUCUGAGAGAUAAAGA, 0.000578 ± 0.02.
The value for UAGUCUGUCACCAAGUCUGAGAGAUUAAGA was 0.00249 ± 0.0048; that for UAGUGUGUCACCUUCUCAGAGACAUUAACA was 0.117 ± 0.025; that for UAGUGACAGUGGUUCUCUCAGUGAUUAACA was 0.000478 ± 0.0089.
With UAGUGACAGUCCUUCUCAGAGAGAUUAAGA the figure was 0.00208 ± 0.0052; with UAGUGACUCAGGAUCUCUGAGAGAUUAACA, 0.00237 ± 0.0028.
On to UAGUGAGUCACCUUCUCUGACAGAAUAACA, for which the “pre-steady-state target cleavage rate” value was found to be 0.00164 ± 0.0077.
The value for UAGUGACAGUCCUUCUCUGAGAGAUUUUCA was 0.00152 ± 0.006.
With UAGUGACAGUCCUUGAGUGAGAGAUUAACA the figure was 0.00142 ± 0.0051; with UAGUGAGUCACCUUCUCUCACAGAUUAACA, 0.00278 ± 0.0052; with UAGUGACAGUGGAACUCUGAGUGAUUAUCA, 0.000692 ± 0.024.
The value for UAGUGACAGACGAACUCUGAGAGAUUAACA was 0.000424 ± 0.01; that for UAGUGUGUCACCUACUCUGAGAGAUUUACA was 0.25 ± 0.052.
As for UAGUGACUCACCUUCUCUGAGACUUUAUGA, the “pre-steady-state target cleavage rate” value was determined as 0.00028 ± 0.021.
With UAGUGACAGUGGAAGUCUGAGCAGAUUAACA, the “pre-steady-state target cleavage rate” value was 0.000208 ± 0.02.
The value for UAGUGACUCACCUUCUCUGAGAGAUUAUGA was 0.0729 ± 0.012; that for UAGUGUGUCACCUUCUGUGAGAGUUUAACA was 0.0964 ± 0.027; that for “UAGUGACAGUGCUUCUCUGACUCUAAUUGA [g11:g19:cont:t1A]” was 0.000143 ± 0.055.
The value for UAGUGAGUCAGCUUCUCUGAGAGAUUUUGA was 0.00248 ± 0.0043; that for UAGUGACAGUCCUUCUCUCAGAGAUAAACA was 0.0029 ± 0.0041.
The value for UAGUGACUCACCUUCUCUGAGAGAUAUAGA was 0.00403 ± 0.0045.
UAGUGACAGUGGAAGUCUGAGAGAUUAAUCA: the “pre-steady-state target cleavage rate” value was 0.000188 ± 0.017.
With UAGUGACAGUGGUUGUCUGAGAGAUUUACA the figure was 0.000967 ± 0.0066; with UAGUGACACACCUUCUCUGAGUCUUUAACA, 0.000132 ± 0.02; with UAGUGACAGUGGAAGUGUGAGACAUUAACA, 0.000177 ± 0.029.
Regarding UAGUGACACACGAUCUCUGAGAGAUUAUGA, the “pre-steady-state target cleavage rate” value is 0.00189 ± 0.005.
With UAGUGACAGUGGAAGUCUGAGAGAUUAACCA the figure was 0.00186 ± 0.0024.
Take UAGUGACAGACCUUCUCUGAGAGUUAACA: the “pre-steady-state target cleavage rate” value was 0.00111 ± 0.01.
With UAGUGAGUCACCUUGUCUGAGUGAUUAACA the figure was 0.00179 ± 0.0055; with UAGUGACUCUCCUUCUCUGAGUGAUUAACA, 0.000488 ± 0.011.
With UAGUGACAGUGGAAGAGAGAGAGAUUACCA the figure was 0.000168 ± 0.034.
With UAGUGUCUCACCUUCUCUGAGAGAUUUACA the figure was 0.196 ± 0.043.
As for UAGUGAGUCACCUUCUCUGAGAGAUUUUCA, the “pre-steady-state target cleavage rate” value stood at 0.145 ± 0.044.
The value for UAGUCUGUCACCUUCUCUGAGAGAUGUAACA was 0.211 ± 0.03.
For “UAGUGACAGUGGAAGAGACUCUCAUUAACC [g2:g7:cont:t1C]”, the “pre-steady-state target cleavage rate” value came out at 0.000114 ± 0.019.
With UAGUGACAGUGGAACUCUGAGAGUAUAACA the figure was 0.000132 ± 0.053; with UAGUGACAGUGGUUCUCUGAGUGAUUAACA, 0.000311 ± 0.013; with UAGUGACAGACCUUCUCUGAGCGAUUAACA, 0.00395 ± 0.004.
As for UAGUGACAGACCUUCUCUGAGACAUUAUGA, the “pre-steady-state target cleavage rate” value is 0.000143 ± 0.035.

Source of the values: the supplement of paper PMC10338343.
